Some of the results follow. Results with a measured potency or affinity are listed apart.
Each molecule was assayed on Pseudomonas aeruginosa. Conditions: Concentration 32 ug.mL-1; ASSAY_TEST Inhibition of Bacterial Growth; detection method Absorption (OD600); MEDIA CAMHB; plate type 384well; NBS; CORNING #3640; time 18 hr.
`Cn1c([N+](=O)[O-])cnc1C(=O)N1CCCC1` gave an Inhibition of 0.93%.
`Cn1c([N+](=O)[O-])cnc1C(=O)NCc1ccc(OC(F)(F)F)cc1` showed an Inhibition of 3.77%.
With `Cn1c([N+](=O)[O-])cnc1C(=O)N1CCOCC1` the Inhibition was 2.73%.
`Cn1c([N+](=O)[O-])cnc1C(=O)NCc1cccc(OC(F)(F)F)c1` gave an Inhibition of 0.64%.
Molecule `Cn1c([N+](=O)[O-])cnc1C(=O)NCc1ccc(F)cc1` has an Inhibition of 3.14%.
`Cn1c([N+](=O)[O-])cnc1C(=O)NCc1ccccn1.O=C(O)C(F)(F)F` showed an Inhibition of 3.74%.
Molecule `CC(NC(=O)c1ncc([N+](=O)[O-])n1C)c1ccc(F)cc1` (stereo not given) has an Inhibition of 0.55%.
`Cn1c([N+](=O)[O-])cnc1C(=O)NC1CC1` showed an Inhibition of -8.74%.
For `Cc1ccc(CCNC(=O)c2ncc([N+](=O)[O-])n2C)cc1`, the Inhibition was 7.68%.
Work on `CN(C)C(=O)c1ncc([N+](=O)[O-])n1C` yielded an Inhibition of 3.82%.

Reference: ChEMBL document CHEMBL4513134, “CO-ADD screening of University of Queensland (Australia) compounds” (2021)
